From publication PMC7819943, “Rice protein-binding microarrays: a tool to detect cis-acting elements near promoter regions in rice”
This is one part of the list.

target: T1, OsSMF1 (Oryza sativa, UniProt Q6ZLB0 1-436); assay: protein-binding microarray (RPBM); PBS, 2% BSA, 51.3 ng/ul salmon testes DNA, 50 uM zinc acetate, 200 nM TF, 25 C, 1 h; high values mean tight binding; conditions: protein: recombinant; tags: N-terminal polyhistidine and DsRed monomer fusion (pET32a); chain copies: 2; label: CyDye5-dUTP incorporated in the synthesized complementary strand; 3' TTTTT single-stranded linker to array surface; dsDNA, one strand shown
T1 sequence: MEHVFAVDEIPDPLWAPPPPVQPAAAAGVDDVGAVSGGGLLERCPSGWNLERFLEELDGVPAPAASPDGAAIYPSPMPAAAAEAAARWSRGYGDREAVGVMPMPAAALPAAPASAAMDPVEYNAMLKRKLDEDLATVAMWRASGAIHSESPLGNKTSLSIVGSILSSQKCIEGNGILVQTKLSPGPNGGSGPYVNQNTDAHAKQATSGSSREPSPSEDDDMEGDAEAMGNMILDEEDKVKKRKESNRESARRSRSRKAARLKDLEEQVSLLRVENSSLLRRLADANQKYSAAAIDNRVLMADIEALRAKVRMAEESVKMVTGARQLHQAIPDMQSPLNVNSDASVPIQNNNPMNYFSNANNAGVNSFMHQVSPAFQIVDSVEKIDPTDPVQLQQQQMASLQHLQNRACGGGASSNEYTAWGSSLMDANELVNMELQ
Method in brief: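 Per-feature fluorescence intensity (arbitrary units), read on an Axon 4000B scanner, is the binding signal. Transcription factors carrying an N-terminal polyhistidine tag and DsRed fusion were expressed in E. coli BL21-CodonPlus and purified on Ni–NTA. A custom Agilent array, made double-stranded by primer extension with Cy5-dUTP and blocked with 2% BSA, was incubated with 200 nM protein in PBS, 2% BSA, salmon testes DNA and 50 µM zinc acetate at 25 °C for 1 h and then washed.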

Row | Sequence | binding signal
1 | TCTTTCATATATTATGGATTTATGGTAGTGTTCTTGCTGTCGGAGTCACCTAGTGCAG | 29500 fluorescence intensity (a.u.)
2 | GACGCGGAGAACTCGCCGGCGGGCGGCGCCGTCATCAGAACGGAGTCACCTAGTGCAG | 6720 fluorescence intensity (a.u.)
3 | TCACGGTGGTTGTGGTGGTCGGCGTCGTCCTCGCGCTCGCCGGAGTCACCTAGTGCAG | 18600 fluorescence intensity (a.u.)
4 | AATCCCAACTAAGCTCTCTCGTTCTCTCAGTCTGTCAACTCGGAGTCACCTAGTGCAG | 3710 fluorescence intensity (a.u.)
5 | ACCCTCAAATTATTTCCATAAACTCAGTTCTATCCATCACCGGAGTCACCTAGTGCAG | 16500 fluorescence intensity (a.u.)
6 | TCCAGCCCGACGAGGTGTCGGCGGCTATCGTCACCTGCGGCGGAGTCACCTAGTGCAG | 3660 fluorescence intensity (a.u.)
7 | ACCGCGCACCAACCCACCGCACGCCGCCCACCACGTGCTGCGGAGTCACCTAGTGCAG | 3320 fluorescence intensity (a.u.)
8 | ACGTGCTTCTGACTAAAAGAGAGAAATTTGTGTGCTGTTTCGGAGTCACCTAGTGCAG | 3160 fluorescence intensity (a.u.)
9 | ACTCCATTTGCTACATGCACTTGTCACGCCACTACTACTCCGGAGTCACCTAGTGCAG | 3450 fluorescence intensity (a.u.)
10 | CGTGTGCCACCCGCTTGCCCCTTCACCGCGCCACACGTACCGGAGTCACCTAGTGCAG | 4350 fluorescence intensity (a.u.)
11 | TCACTTCGAGCCATACCATTAATTTATACACGTAATCAACCGGAGTCACCTAGTGCAG | 6930 fluorescence intensity (a.u.)
12 | CTCGTGTGGTGGCCTGCGTTGATTCCCGACGTGGCGCGAGCGGAGTCACCTAGTGCAG | 22700 fluorescence intensity (a.u.)
13 | CATCAACCCCTCAACCTTGCCACGTCAGTGCCAAATCAACCGGAGTCACCTAGTGCAG | 12500 fluorescence intensity (a.u.)
14 | CTTTGGATTCTGGTTAAAGAATTCGAATGGGAACTCTTAGCGGAGTCACCTAGTGCAG | 3400 fluorescence intensity (a.u.)
15 | AACTGAATCCCATCCACTCCTTTATCATCATCACCATTTCCGGAGTCACCTAGTGCAG | 3370 fluorescence intensity (a.u.)
16 | TGACGGAAAACGTGACGGCGGTGGCATGTTTCTAATTTTGCGGAGTCACCTAGTGCAG | 3160 fluorescence intensity (a.u.)
17 | CTCTTAGCAATGCTGACTGGTCCGATCAAAGTCAACGGTTCGGAGTCACCTAGTGCAG | 4660 fluorescence intensity (a.u.)
18 | ATTCTGTCCACGTGTTAGGATCCGAGGGCAACCAGCGAATCGGAGTCACCTAGTGCAG | 5130 fluorescence intensity (a.u.)
19 | CCTTACTATGTGTGTCATCCAACATCTCTATGATAAATTTCGGAGTCACCTAGTGCAG | 4660 fluorescence intensity (a.u.)
20 | TCGTCTGCTGCTCCGCGAAGAAGGGCCAGCTCAGCATCGGCGGAGTCACCTAGTGCAG | 10500 fluorescence intensity (a.u.)
21 | GGCTAAATGCTGAGGTGGAGAAGAGAAGAGAGGAGAAGCGCGGAGTCACCTAGTGCAG | 3480 fluorescence intensity (a.u.)

Quoted from above, nos. 7–9
Row | Sequence | binding signal
7 | ACCGCGCACCAACCCACCGCACGCCGCCCACCACGTGCTGCGGAGTCACCTAGTGCAG | 3320 fluorescence intensity (a.u.)
8 | ACGTGCTTCTGACTAAAAGAGAGAAATTTGTGTGCTGTTTCGGAGTCACCTAGTGCAG | 3160 fluorescence intensity (a.u.)
9 | ACTCCATTTGCTACATGCACTTGTCACGCCACTACTACTCCGGAGTCACCTAGTGCAG | 3450 fluorescence intensity (a.u.)

Further records:

Row | Sequence | binding signal
22 | TGCTCGTGCCGCGCCACCGTGTTCCTCTCGGACCACGTGTCGGAGTCACCTAGTGCAG | 5480 fluorescence intensity (a.u.)
23 | TAGATGCAGATAATGAAGATCTGTCATCATCTAGATTACCCGGAGTCACCTAGTGCAG | 4420 fluorescence intensity (a.u.)
24 | CTGTTGCTTACTTGCGTGTCATCCAGAGTCATAGACGACTCGGAGTCACCTAGTGCAG | 6720 fluorescence intensity (a.u.)
25 | GGTGTACCCCACGTGTTAGGTGACGTGACGTATCGGTTTTCGGAGTCACCTAGTGCAG | 13000 fluorescence intensity (a.u.)
26 | AGACCAGTGGAAACTAGCATAACAATCATGTCACCCAATGCGGAGTCACCTAGTGCAG | 3390 fluorescence intensity (a.u.)
27 | GCCGAGCGGCCGAATTCCGGTGGCTTCGACTTCGATCGGGCGGAGTCACCTAGTGCAG | 3290 fluorescence intensity (a.u.)
28 | GGAGAAGTTCCAACGCATCGATGACTGTTGATGGTCTTTTCGGAGTCACCTAGTGCAG | 3170 fluorescence intensity (a.u.)
29 | TGGGATAGGAATGGGGAATTGAGGAAAGAACTCCCTTCTTCGGAGTCACCTAGTGCAG | 3610 fluorescence intensity (a.u.)
30 | TATGGGTTTGCAGCTTTCACAGTGCAGCCACGGGACGTGGCGGAGTCACCTAGTGCAG | 5200 fluorescence intensity (a.u.)
31 | CTGACCTTAGACACCTCAGCGCCACGTCAATTGGCGCTGACGGAGTCACCTAGTGCAG | 10900 fluorescence intensity (a.u.)
32 | CACCGTTGGCGCACAGGTGTCACCGCCTTGGCCGACCACGCGGAGTCACCTAGTGCAG | 4580 fluorescence intensity (a.u.)
33 | ACAAACTTATCACTGAGCTCACAAGTCTAATAATTGCTAACGGAGTCACCTAGTGCAG | 3260 fluorescence intensity (a.u.)
34 | CATCCCTGGTGCTCTTGGTCTCTTGGCAGCTGTGGAAGGACGGAGTCACCTAGTGCAG | 43000 fluorescence intensity (a.u.)
35 | GTCAAGAAGTTAATGGCGTCATACATTAAAATGCGGAGGGCGGAGTCACCTAGTGCAG | 4220 fluorescence intensity (a.u.)
36 | GTGACCGGAGACGCTATTCGAGTTATTACTACTACCCGGTCGGAGTCACCTAGTGCAG | 11200 fluorescence intensity (a.u.)
37 | CTTCAGAGGATGCTGCTAAGCGCGTGGGACTTGATCTCAACGGAGTCACCTAGTGCAG | 3380 fluorescence intensity (a.u.)
38 | GACAGATGTGCTGAGTGCTGACGTGGTTAAACTAACCTCGCGGAGTCACCTAGTGCAG | 16100 fluorescence intensity (a.u.)
39 | ACATAGGAAGCAACCTAACTGACGCGTGACTTAGGTCCTGCGGAGTCACCTAGTGCAG | 4590 fluorescence intensity (a.u.)
40 | CGGCCCATCCCATCTCCAAGTCCAACGCAGCAGCTCGCCCCGGAGTCACCTAGTGCAG | 4910 fluorescence intensity (a.u.)
41 | TTCATGACAAGTCCCTGTTGGCTGTTGCAATCATTGTAGTCGGAGTCACCTAGTGCAG | 3590 fluorescence intensity (a.u.)
42 | TTAGAAAATTGACTCTGACTTGGCAGCATAATTGAGACTACGGAGTCACCTAGTGCAG | 5900 fluorescence intensity (a.u.)
